Results published in patent publication US20230212122A1, “MITOCHONDRIAL TARGETING COMPOUNDS FOR THE TREATMENT OF ASSOCIATED DISEASES” (The Regents of the University of Michigan, priority 2020, published 2023).
This continues a long series; more values of the same kind are listed elsewhere.

Assays:
[1] = tested on: UM16 cell line; test: GSEA of Bru-seq data (hallmark, KEGG, GO pathways, transcription factors); assay type: cell-based; details: 5 μM, 4 hours
Text: Consistent with this observation, there are also massive metabolite pathways influenced including starch and sucrose metabolism, glycolysis and gluconeogenesis, purine metabolism, pyrimidine metabolism, N-glycan biosynthesis, etc.

[2] = tested on: UM16 cell line; test: GSEA of proteomics data ([…], KEGG pathways); assay type: cell-based; details: 5 μM, 24 hours
Text: Several proteins participating in energy metabolism were dramatically changed.

Which NES ([1]; transcription factor set AP4_Q6, FDR q-val 0.078) does the source give for `CCOC(=O)[C@@H]1CCCN(S(=O)(=O)c2ccc(S(=O)(=O)N(CC)CC)cc2)C1` [DX2-201, ethyl (R)-1-((4-(N,N-diethylsulfamoyl)phenyl)sulfonyl)piperidine-3-carboxylate] here?
The NES was 1.607.

What about the NES ([1]; transcription factor set AREB6_04, FDR q-val 0.098) of the same compound?
The NES was 1.566.

And the NES ([1]; transcription factor set E47_01, FDR q-val 0.060)?
Its NES is 1.646.

And the NES ([1]; transcription factor set FOXJ2_02, FDR q-val 0.090)?
Its NES is 1.582.

What about the NES ([1]; transcription factor set FOXO1_02, FDR q-val 0.007) of the same compound?
The NES was 2.057.

And the NES ([1]; transcription factor set FOXO4_01, FDR q-val 0.014)?
The NES was 2.069.

And the NES ([1]; transcription factor set FOXO4_02, FDR q-val 0.007)?
Its NES is 2.000.

And the NES ([1]; transcription factor set FREAC3_01, FDR q-val 0.058)?
Its NES is 1.657.

What about the NES ([1]; transcription factor set HNF3_Q6, FDR q-val 0.073) of the same compound?
The NES was 1.604.

And the NES ([1]; transcription factor set NKX62_Q2, FDR q-val 0.058)?
The NES was 1.663.

And the NES ([1]; transcription factor set OCT1_Q5_01, FDR q-val 0.094)?
Its NES is 1.574.

What about the NES ([1]; transcription factor set PAX2_02, FDR q-val 0.061) of the same compound?
Its NES is 1.664.

And the NES ([1]; transcription factor set RYCACNNRNNRNCAG_UNKNOWN, FDR q-val 0.075)?
The NES was 1.606.

What about the NES ([1]; transcription factor set TTANWNANTGGM_UNKNOWN, FDR q-val 0.051) of the same compound?
Its NES is 1.686.

And the NES ([1]; transcription factor set YWATTWNNRGCT_UNKNOWN, FDR q-val 0.059)?
The NES was 1.641.

And the ES ([2]; HALLMARK_ESTROGEN_RESPONSE_EARLY, FDR q-val 0.813)?
The ES was 0.301.

And the ES ([2]; KEGG_ANTIGEN_PROCESSING_AND_PRESENTATION, FDR q-val 0.792)?
The ES was −0.285.

What about the ES ([2]; KEGG_BASAL_TRANSCRIPTION_FACTORS, FDR q-val 0.687) of the same compound?
Its ES is −0.389.

And the ES ([2]; KEGG_CELL_CYCLE, FDR q-val 0.828)?
Its ES is −0.246.

And the ES ([2]; KEGG_CITRATE_CYCLE_TCA_CYCLE, FDR q-val 0.422)?
Its ES is −0.445.

What about the ES ([2]; KEGG_DNA_REPLICATION, FDR q-val 0.844) of the same compound?
The ES was −0.273.

What about the ES ([2]; KEGG_ERBB_SIGNALING_PATHWAY, FDR q-val 0.821) of the same compound?
Its ES is 0.488.

And the ES ([2]; KEGG_N_GLYCAN_BIOSYNTHESIS, FDR q-val 0.658)?
Its ES is −0.366.

And the ES ([2]; KEGG_PARKINSONS_DISEASE, FDR q-val 0.702)?
The ES was −0.290.

What about the ES ([2]; KEGG_PROTEASOME, FDR q-val 0.605) of the same compound?
The ES was −0.401.

And the ES ([2]; KEGG_PROTEIN_EXPORT, FDR q-val 0.625)?
Its ES is −0.376.

What about the ES ([2]; KEGG_RIBOSOME, FDR q-val 0.003) of the same compound?
The ES was −0.520.

And the ES ([2]; KEGG_RNA_DEGRADATION, FDR q-val 0.672)?
The ES was −0.342.

And the ES ([2]; KEGG_SPLICEOSOME, FDR q-val 0.541)?
Its ES is −0.310.

What about the ES ([2]; KEGG_VIBRIO_CHOLERAE_INFECTION, FDR q-val 0.754) of the same compound?
Its ES is −0.335.
